Test results published in patent US7001746B1, “Methods and compositions for the differentiation of human preadipocytes into adipocytes” (Artecel Sciences, Inc., priority 1999, dated 2006).
At least one compound was matched to its structure with a doubt left.

Legend:
[1] = system: human preadipocytes; conditions: serum-free medium supplemented with TZD, cited from earlier work
[2] = system: human preadipocytes; experiment: Differentiation of human preadipocytes to adipocytes, Oil Red O staining (Example 2); format: cell-based; conditions: various concentrations for 3 days, staining after 9 days; FIG. 3
[3] = system: human preadipocytes; experiment: Glucocorticoid-dependent differentiation of human preadipocytes, Oil Red O lipid accumulation (Example 3); format: cell-based; conditions: increasing concentrations, 3 days then 12 days; FIG. 4

For `CN(CCOc1ccc(CC2SC(=O)NC2=O)cc1)c1ccccn1` (stereo not shown) [BRL49653], the “differentiation of omental preadipocytes” value ([1]; omental) is listed as 20%, the “differentiation of subcutaneous and perirenal preadipocytes” value ([1]; subcutaneous and perirenal) is listed as 50-80% and the “effect on the ability to differentiate human preadipocytes as measured by Oil Red O staining” value [2] is listed as “dose responsive effect”.
For `C[C@@H]1C[C@H]2[C@@H]3CCC4=CC(=O)C=C[C@]4(C)[C@@]3(F)[C@@H](O)C[C@]2(C)[C@@]1(O)C(=O)CO` [dexamethasone], the “ability to stimulate differentiation, as measured by lipid accumulation” value [3] was “stimulate differentiation in a dose-dependent manner”.
